# Reference: PubChem BioAssay AID1671195 (Yale University, 2021)
# Assay: 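Knockdowns that increase or decrease uptake of fluorescent LDL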 (primary screen)
# System: human Huh7 hepatoma cells
# Reagents: siRNA pool against human genes, 18 nM
# Timing: about 2 to 2.5 days of knockdown, then 8 h LDL uptake
# Conditions: DiI-labelled LDL at 30 µg/ml for 8 h, in lipoprotein-deficient serum medium
# Measurement: 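Per-cell DiI-LDL intensity by automated imaging; well means scaled to the plate median and given as a robust z-score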
# Reading the numbers: robust z-score: higher = more LDL uptake after knockdown
# Hit rule: 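a gene counts as active if at least two replicate z-scores exceed ±2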
# The deposit covers about 22,000 reagents; this is a random part of them. Of all reagents, about 1,510 (6.9%) got an active call. 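Active includes knockdowns raising or lowering LDL uptake; positive z-scores mean more uptake, negative mean less.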 No sequences are given here.
Gene,"robust z-score, replicate 1","robust z-score, replicate 2","robust z-score, replicate 3",Call
NANOS1 (nanos C2HC-type zinc finger 1),0.00685,0.142,0.2,inactive
GTF2F1 (general transcription factor IIF subunit 1),-1.34,-1.65,-1.75,inactive
CHPF2 (chondroitin polymerizing factor 2),0.0577,-0.682,-0.175,inactive
MIR2052HG (MIR2052 host gene),-0.447,-0.378,-0.655,inactive
PDAP1P3 (PDAP1 pseudogene 3),0.0475,-0.281,0.261,inactive
LOC441189 (retired record),1.36,0.0205,-0.304,inactive
ZNF410 (zinc finger protein 410),-0.734,-0.518,-0.372,inactive
RUFY1 (RUN and FYVE domain containing 1),2.78,2.55,2.83,active
UVRAG (UV radiation resistance associated),-2.05,-1.32,-1.91,active
RPS6KB2 (ribosomal protein S6 kinase B2),-0.628,-0.286,0.121,inactive
KCND2 (potassium voltage-gated channel subfamily D member 2),-1.11,-1.23,-1.24,inactive
MED1 (mediator complex subunit 1),-0.484,-0.759,-0.287,inactive
PACSIN3 (protein kinase C and casein kinase substrate in neurons 3),-0.27,-0.0595,-0.68,inactive
EEF1A1P47,1.08,0.284,0.475,inactive
EID2B (EP300 interacting inhibitor of differentiation 2B),-1.53,-1.08,-0.497,inactive
LOC440079 (retired record),-0.893,-0.932,-1.08,inactive
LOC440522 (retired record),-1.01,-0.962,-0.957,inactive
COPS7B (COP9 signalosome subunit 7B),0.0186,-0.576,0.342,inactive
ANXA4 (annexin A4),-0.588,-1.1,-0.768,inactive
GPAA1 (glycosylphosphatidylinositol anchor attachment 1),-1.04,1.5,0.222,inactive
DRGX (dorsal root ganglia homeobox),-0.482,-0.739,-0.394,inactive
TLL2 (tolloid like 2),-0.955,-1.73,-1.3,inactive
"CSN1S2AP (casein alpha s2 like A, pseudogene)",-1.59,-1.55,-1.25,inactive
BNIP3 (BCL2 interacting protein 3),-1.31,-0.978,-0.271,inactive
VN1R4 (vomeronasal 1 receptor 4),-0.275,-0.433,-0.287,inactive
WIPF1 (WAS/WASL interacting protein family member 1),-0.849,-1.06,0.201,inactive
SLC8A1,0.904,0.252,1.28,inactive
LOC388137 (retired record),0.39,0.0949,-0.139,inactive

Records listed so far whose gene name begins with R or r:
Gene,"robust z-score, replicate 1","robust z-score, replicate 2","robust z-score, replicate 3",Call
RUFY1 (RUN and FYVE domain containing 1),2.78,2.55,2.83,active
RPS6KB2 (ribosomal protein S6 kinase B2),-0.628,-0.286,0.121,inactive
